These are yes or no findings as the source states them, for the method shown. For part of these data: A result given as binding can be weak or reduced; the word gives no strength.

The target in experiment [1] is α11β1 Headpiece. As to the kind of experiment: SPR, single-cycle injections of 33, 100 and 300 nM over the a11b1 Headpiece. For orientation: Surface plasmon resonance follows binding to a sensor surface in real time, without labels.
Experiment [2] addresses α11β1 Headpiece. The experiment can be described thus: SPR.

B1: 79E3E3 (antibody, V domains shown)
VH: QIQLVQSGPEVKKPGESVKISCKASGYTFTDYAMNWVKQAPGNGLKWMGWINTQTGKPTYADDFKQRFVFSLETSARTTYLQINNLNIEDTATYFCTRLGTGNTKGFAYWGQGTLVTVSS
VL: DILINQSPASLTVSAGERVTMSCKSSQSLLYSENNQDYLAWYQQKPGQFPKLLIYGASNRHTGVPDRFTGSGSGTDFTLTISSVQAEDLADYYCEQTYRYPFTFGSGTKLEIK
Take B1: the binding result in experiment [1] is listed as “binds”.

B2: A11B1_16E10 (antibody, V domains shown)
VH: QSLEESGGDLVKPGASLTLTCRVSGFSFSSSYYMCWVRQAPGKGLEWIACIGTTRGSTYYATWAKGRFTISKISSTTVTLQMTSLTDADTATYFCARDATGYRINTIGLYFNLWGPGTLVTVSS
VL: AFELTQTPSSVEAAVGGTPTIKCQASQTIYSYLSWYQQKPGQPPKLLIYEASKLASGVPSRFSGSGSGTDYTLTISDLECADAATYYCQSYHGTASTEYNTFGGGTEVVVRG
B2: the results for the binding result in experiment [2] and in experiment [1] were “no binding” and “no binding (tested: 300 nM)”, respectively.

B3: 1994_01_C07 (antibody, V domains shown)
VH: QVQLVQSGAEVKKPGASVKVSCKASGYTFTSYGISWVRQAPGQGLEWMGWISAYNGNTNYAQKLQGRVTMTTDTSTSTAYMELRSLRSDDTAAYYCARVTGITGTTIDPWGQGTMVTVSS
VL: DIQMTQSPSSLSASVGDRVTITCRASQSISSYLNWYQQKPGKAPKLLIYDASSLESGVPSRFSGSGSGTEFTLTISSLQPDDFAVYYCQQYNNWPQTFGQGTKVEIK
Consider B3, for which the binding result in experiment [2] is on record as “no binding”; in experiment [1], “no binding (tested: 300 nM)”.

B4: 9-G05 (antibody, V domains shown)
VH: EVQLQQSGPELVKPGASVKIPCKASGYTFPDYNMDWVKQSHGKSLEWIGYINPDNGGTIYNQKFKGKATLTVDKSSSTAYMELRSLTSEDTAVYYCARLDSSGYGYYAMDYWGQGTSVTVSS
VL: DIVLTQSPASLAVSLGQRATISCRASESVDNYGISFMHWYQQKPGQPPKLLIYRASNLDSEIPARFSGSGSRTDFTLTIDPVETDDVATYYCQQSYKDPRTFGGGTKLEIK
B4: the binding result in experiment [1] is “binds”.

These data come from patent US20230050972A1.
